{"source": "the supplement of paper PMC8728848", "binders": {"B1": {"name": "B936 (Bifidobacterium sp) (protein)", "chain": "MKNWKKAIALVASAAALVSVAACGPSNAGGSSDSGKKTVGFVAVGPEGGFRTANEKDIQKAFEDAGFDLTYSPTQNNDQQKQIQAFNKFVNDEVDAIILSSTEDSGWDDSLKKAAEAEIPVFTVDRNVDVKDAEAKKAIVAHIGPSNVWCGEQAAEFVNKNFPDGANGFILEGPAGLSVVKDRGTGWGNKVASNVKVLESQSANWSTDEAKTVTAGLLDKYKSDNPQFIFAQNDEMGLGAAQAVDAAGLKGKVKIITIDGTKNALQALVDGDLSYVIEYNPIFGKETAQAVKDYLDGKTVEKDIEIESKTFDAASAKEALDNNTRAY"}}, "experiment_in_all_cases": "glycan array binding signal (z-score within array); higher = stronger binding", "conditions_in_all_cases": "glycan notation: IUPAC condensed, linker removed", "key": {"[1]": {"molecular_target": "GlcNAc(b1-3)Man", "how_it_was_run": "(§1)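 Glycan array binding is given as a within-array Z-score, which can be read as non-binding when negative. The arrays, 3228 of them, came from the Consortium for Functional Glycomics database and were retained only where the protein sequence was available. Z-scores were averaged across arrays of the same protein sequence at different concentrations or buffers and across linkers.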"}, "[2]": {"molecular_target": "GlcNAc(b1-3)[GlcNAc(b1-4)][GlcNAc(b1-6)]GlcNAc", "how_it_was_run": "as §1"}, "[3]": {"molecular_target": "GlcNAc(b1-3)[GlcNAc(b1-6)]Gal(b1-4)GlcNAc", "how_it_was_run": "as §1"}, "[4]": {"molecular_target": "GlcNAc(b1-3)[GlcNAc(b1-6)]GalNAc", "how_it_was_run": "as §1"}, "[5]": {"molecular_target": "GlcNAc(b1-4)Gal(b1-4)GlcNAc", "how_it_was_run": "as §1"}, "[6]": {"molecular_target": "GlcNAc(b1-4)GlcNAc", "how_it_was_run": "as §1"}, "[7]": {"molecular_target": "GlcNAc(b1-4)GlcNAc(b1-4)GlcNAc", "how_it_was_run": "as §1"}, "[8]": {"molecular_target": "GlcNAc(b1-4)GlcNAc(b1-4)GlcNAc(b1-4)GlcNAc(b1-4)GlcNAc", "how_it_was_run": "as §1"}, "[9]": {"molecular_target": "GlcNAc(b1-4)GlcNAc(b1-4)GlcNAc(b1-4)GlcNAc(b1-4)GlcNAc(b1-4)GlcNAc", "how_it_was_run": "as §1"}, "[10]": {"molecular_target": "GlcNAc(b1-4)[GlcNAc(b1-6)]GalNAc", "how_it_was_run": "as §1"}, "[11]": {"molecular_target": "GlcNAc(b1-6)Gal(b1-4)GlcNAc", "how_it_was_run": "as §1"}, "[12]": {"molecular_target": "GlcNAc(b1-6)GalNAc", "how_it_was_run": "as §1"}, "[13]": {"molecular_target": "GlcNAc6S(b1-3)Gal(b1-4)GlcNAc", "how_it_was_run": "as §1"}, "[14]": {"molecular_target": "Kdn(a2-3)Gal(b1-3)GalNAc", "how_it_was_run": "as §1"}, "[15]": {"molecular_target": "Kdn(a2-3)Gal(b1-3)GlcNAc", "how_it_was_run": "as §1"}, "[16]": {"molecular_target": "Kdn(a2-3)Gal(b1-4)Glc", "how_it_was_run": "as §1"}, "[17]": {"molecular_target": "Kdn(a2-3)Gal(b1-4)GlcNAc", "how_it_was_run": "as §1"}, "[18]": {"molecular_target": "Kdn(a2-3)Gal(b1-4)[Fuc(a1-3)]GlcNAc", "how_it_was_run": "as §1"}, "[19]": {"molecular_target": "Kdn(a2-6)Gal(b1-4)GlcNAc", "how_it_was_run": "as §1"}, "[20]": {"molecular_target": "Man(a1-2)Man(a1-2)Man(a1-3)Man", "how_it_was_run": "as §1"}, "[21]": {"molecular_target": "Man(a1-2)Man(a1-2)Man(a1-6)[Man(a1-3)]Man", "how_it_was_run": "as §1"}, "[22]": {"molecular_target": "Man(a1-2)Man(a1-3)Man", "how_it_was_run": "as §1"}, "[23]": {"molecular_target": "Man(a1-2)Man(a1-3)[Man(a1-2)Man(a1-6)]Man", "how_it_was_run": "as §1"}, "[24]": {"molecular_target": "Man(a1-2)Man(a1-3)[Man(a1-2)Man(a1-6)]Man(a1-6)[Man(a1-2)Man(a1-2)Man(a1-3)]Man", "how_it_was_run": "as §1"}, "[25]": {"molecular_target": "Man(a1-2)Man(a1-3)[Man(a1-2)Man(a1-6)]Man(a1-6)[Man(a1-2)Man(a1-2)Man(a1-3)]Man(b1-4)GlcNAc(b1-4)GlcNAc", "how_it_was_run": "as §1"}, "[26]": {"molecular_target": "Man(a1-2)Man(a1-3)[Man(a1-6)]Man(a1-6)[Man(a1-2)Man(a1-3)]Man(b1-4)GlcNAc(b1-4)GlcNAc", "how_it_was_run": "as §1"}, "[27]": {"molecular_target": "Man(a1-2)Man(a1-6)[Man(a1-3)]Man(a1-6)[Man(a1-2)Man(a1-2)Man(a1-3)]Man", "how_it_was_run": "as §1"}, "[28]": {"molecular_target": "Man(a1-2)Man(a1-6)[Man(a1-3)]Man(a1-6)[Man(a1-2)Man(a1-2)Man(a1-3)]Man(b1-4)GlcNAc(b1-4)GlcNAc", "how_it_was_run": "as §1"}, "[29]": {"molecular_target": "Man(a1-3)[Man(a1-6)]Man", "how_it_was_run": "as §1"}, "[30]": {"molecular_target": "Man(a1-3)[Man(a1-6)]Man(a1-6)[Man(a1-2)Man(a1-3)]Man(b1-4)GlcNAc(b1-4)GlcNAc", "how_it_was_run": "as §1"}, "[31]": {"molecular_target": "Man(a1-3)[Man(a1-6)]Man(a1-6)[Man(a1-3)]Man", "how_it_was_run": "as §1"}, "[32]": {"molecular_target": "Man(a1-3)[Man(a1-6)]Man(a1-6)[Man(a1-3)]Man(b1-4)GlcNAc(b1-4)GlcNAc", "how_it_was_run": "as §1"}, "[33]": {"molecular_target": "Man(a1-3)[Man(a1-6)]Man(b1-4)GlcNAc(b1-4)GlcNAc", "how_it_was_run": "as §1"}, "[34]": {"molecular_target": "Man(a1-3)[Man(a1-6)]Man(b1-4)GlcNAc(b1-4)[Fuc(a1-6)]GlcNAc", "how_it_was_run": "as §1"}, "[35]": {"molecular_target": "Man(a1-6)Man", "how_it_was_run": "as §1"}, "[36]": {"molecular_target": "Man(b1-4)GlcNAc", "how_it_was_run": "as §1"}, "[37]": {"molecular_target": "MurNAc(b1-4)GlcNAc", "how_it_was_run": "as §1"}, "[38]": {"molecular_target": "Neu5Ac(a2-3)Gal", "how_it_was_run": "as §1"}}, "note": "The list shows a part of the results.", "data": [{"binder": "B1", "values": [{"measurement": "glycan array binding signal (z-score)", "setting": "[1]", "result": -0.286}, {"measurement": "glycan array binding signal (z-score)", "setting": "[2]", "result": -0.204}, {"measurement": "glycan array binding signal (z-score)", "setting": "[3]", "result": -0.022}, {"measurement": "glycan array binding signal (z-score)", "setting": "[4]", "result": 0.195}, {"measurement": "glycan array binding signal (z-score)", "setting": "[5]", "result": 0.488}, {"measurement": "glycan array binding signal (z-score)", "setting": "[6]", "result": -0.37}, {"measurement": "glycan array binding signal (z-score)", "setting": "[7]", "result": -0.483}, {"measurement": "glycan array binding signal (z-score)", "setting": "[8]", "result": 0.056}, {"measurement": "glycan array binding signal (z-score)", "setting": "[9]", "result": -0.697}, {"measurement": "glycan array binding signal (z-score)", "setting": "[10]", "result": -0.262}, {"measurement": "glycan array binding signal (z-score)", "setting": "[11]", "result": -0.106}, {"measurement": "glycan array binding signal (z-score)", "setting": "[12]", "result": -0.294}, {"measurement": "glycan array binding signal (z-score)", "setting": "[13]", "result": -0.129}, {"measurement": "glycan array binding signal (z-score)", "setting": "[14]", "result": -0.17}, {"measurement": "glycan array binding signal (z-score)", "setting": "[15]", "result": -0.332}, {"measurement": "glycan array binding signal (z-score)", "setting": "[16]", "result": -0.77}, {"measurement": "glycan array binding signal (z-score)", "setting": "[17]", "result": -0.504}, {"measurement": "glycan array binding signal (z-score)", "setting": "[18]", "result": -0.769}, {"measurement": "glycan array binding signal (z-score)", "setting": "[19]", "result": -0.344}, {"measurement": "glycan array binding signal (z-score)", "setting": "[20]", "result": -0.385}, {"measurement": "glycan array binding signal (z-score)", "setting": "[21]", "result": -0.504}, {"measurement": "glycan array binding signal (z-score)", "setting": "[22]", "result": 0.49}, {"measurement": "glycan array binding signal (z-score)", "setting": "[23]", "result": -1.34}, {"measurement": "glycan array binding signal (z-score)", "setting": "[24]", "result": 0.811}, {"measurement": "glycan array binding signal (z-score)", "setting": "[25]", "result": -0.362}, {"measurement": "glycan array binding signal (z-score)", "setting": "[26]", "result": -0.684}, {"measurement": "glycan array binding signal (z-score)", "setting": "[27]", "result": -0.919}, {"measurement": "glycan array binding signal (z-score)", "setting": "[28]", "result": -1.1}, {"measurement": "glycan array binding signal (z-score)", "setting": "[29]", "result": -0.318}, {"measurement": "glycan array binding signal (z-score)", "setting": "[30]", "result": -0.253}, {"measurement": "glycan array binding signal (z-score)", "setting": "[31]", "result": 0.034}, {"measurement": "glycan array binding signal (z-score)", "setting": "[32]", "result": -0.905}, {"measurement": "glycan array binding signal (z-score)", "setting": "[33]", "result": -0.27}, {"measurement": "glycan array binding signal (z-score)", "setting": "[34]", "result": 0.483}, {"measurement": "glycan array binding signal (z-score)", "setting": "[35]", "result": 0.717}, {"measurement": "glycan array binding signal (z-score)", "setting": "[36]", "result": 0.187}, {"measurement": "glycan array binding signal (z-score)", "setting": "[37]", "result": -0.486}, {"measurement": "glycan array binding signal (z-score)", "setting": "[38]", "result": -0.249}]}]}
